Changes are numbered by the printed parent chain. Negatives hold for the conditions tested. At least one verdict was read from the data and is not stated in words by the source. For part of these data: Protein sequences can lack the tags named with them.
Experiments:
Assay in all cases: EMSA
Details in all cases: up to 4 uM; 20 mM Tris-HCl pH 8, 100 mM KCl, 5 mM MgCl2, 1 mM DTT, 10% glycerol, 0.1 mg/ml poly(dI-dC), room temperature, 20 min; 1.14 nM phyC or 0.95 nM sinIR DNA; recombinant protein; residues 3-96; protein details: His6; label: 5'-32P
[1] = biological target: AbrB Q89A Q91A (Bacillus subtilis 168) (UniProt P08874)
[2] = biological target: T1, AbrB N88D N90D (Bacillus subtilis 168) (UniProt P08874)
T1 sequence (looked up): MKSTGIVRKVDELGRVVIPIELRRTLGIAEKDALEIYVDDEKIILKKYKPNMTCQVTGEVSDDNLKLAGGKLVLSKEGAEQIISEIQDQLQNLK

[3] = biological target: T2, AbrB E77A E79A (Bacillus subtilis 168) (UniProt P08874)
T2 sequence (looked up): T1 sequence (looked up) with E77A, D88N

[4] = biological target: T3, AbrB N88A N90A (Bacillus subtilis 168) (UniProt P08874)
T3 sequence (looked up): T1 sequence (looked up) with D88A

[5] = biological target: T4, AbrB K76A K78A (Bacillus subtilis 168) (UniProt P08874)
T4 sequence (looked up): T1 sequence (looked up) with K76A, D88N

[6] = biological target: T5, AbrB Q55A Q57A (Bacillus subtilis 168) (UniProt P08874)
T5 sequence (looked up): T1 sequence (looked up) with Q55A, D88N

Measured: binding result

GTGATTTAATGGCAAATGACTTCCAGAGACTAATGA (double strand) [sinIR P1 AbrB site 36 bp]
no binding: [1] | [2] | [3] | [4] | [5] | [6]

— PMC4022651, “Substitutional Analysis of the C-Terminal Domain of AbrB Revealed Its Essential Role in DNA-Binding Activity”
